Positions count from the first letter of the chain named. No constants are given. Whether binding was seen depends on the method and setting. In cells and extracts the contact can be indirect. Here binding means that the protein was enriched with, or labelled near, the bait; the list need not be complete. For part of these data: Where a sequence is shown, tags or fusion partners need not be part of it.

Chains of the proteins cited; added tags and fusions are not shown.
UniProt Q3URK3: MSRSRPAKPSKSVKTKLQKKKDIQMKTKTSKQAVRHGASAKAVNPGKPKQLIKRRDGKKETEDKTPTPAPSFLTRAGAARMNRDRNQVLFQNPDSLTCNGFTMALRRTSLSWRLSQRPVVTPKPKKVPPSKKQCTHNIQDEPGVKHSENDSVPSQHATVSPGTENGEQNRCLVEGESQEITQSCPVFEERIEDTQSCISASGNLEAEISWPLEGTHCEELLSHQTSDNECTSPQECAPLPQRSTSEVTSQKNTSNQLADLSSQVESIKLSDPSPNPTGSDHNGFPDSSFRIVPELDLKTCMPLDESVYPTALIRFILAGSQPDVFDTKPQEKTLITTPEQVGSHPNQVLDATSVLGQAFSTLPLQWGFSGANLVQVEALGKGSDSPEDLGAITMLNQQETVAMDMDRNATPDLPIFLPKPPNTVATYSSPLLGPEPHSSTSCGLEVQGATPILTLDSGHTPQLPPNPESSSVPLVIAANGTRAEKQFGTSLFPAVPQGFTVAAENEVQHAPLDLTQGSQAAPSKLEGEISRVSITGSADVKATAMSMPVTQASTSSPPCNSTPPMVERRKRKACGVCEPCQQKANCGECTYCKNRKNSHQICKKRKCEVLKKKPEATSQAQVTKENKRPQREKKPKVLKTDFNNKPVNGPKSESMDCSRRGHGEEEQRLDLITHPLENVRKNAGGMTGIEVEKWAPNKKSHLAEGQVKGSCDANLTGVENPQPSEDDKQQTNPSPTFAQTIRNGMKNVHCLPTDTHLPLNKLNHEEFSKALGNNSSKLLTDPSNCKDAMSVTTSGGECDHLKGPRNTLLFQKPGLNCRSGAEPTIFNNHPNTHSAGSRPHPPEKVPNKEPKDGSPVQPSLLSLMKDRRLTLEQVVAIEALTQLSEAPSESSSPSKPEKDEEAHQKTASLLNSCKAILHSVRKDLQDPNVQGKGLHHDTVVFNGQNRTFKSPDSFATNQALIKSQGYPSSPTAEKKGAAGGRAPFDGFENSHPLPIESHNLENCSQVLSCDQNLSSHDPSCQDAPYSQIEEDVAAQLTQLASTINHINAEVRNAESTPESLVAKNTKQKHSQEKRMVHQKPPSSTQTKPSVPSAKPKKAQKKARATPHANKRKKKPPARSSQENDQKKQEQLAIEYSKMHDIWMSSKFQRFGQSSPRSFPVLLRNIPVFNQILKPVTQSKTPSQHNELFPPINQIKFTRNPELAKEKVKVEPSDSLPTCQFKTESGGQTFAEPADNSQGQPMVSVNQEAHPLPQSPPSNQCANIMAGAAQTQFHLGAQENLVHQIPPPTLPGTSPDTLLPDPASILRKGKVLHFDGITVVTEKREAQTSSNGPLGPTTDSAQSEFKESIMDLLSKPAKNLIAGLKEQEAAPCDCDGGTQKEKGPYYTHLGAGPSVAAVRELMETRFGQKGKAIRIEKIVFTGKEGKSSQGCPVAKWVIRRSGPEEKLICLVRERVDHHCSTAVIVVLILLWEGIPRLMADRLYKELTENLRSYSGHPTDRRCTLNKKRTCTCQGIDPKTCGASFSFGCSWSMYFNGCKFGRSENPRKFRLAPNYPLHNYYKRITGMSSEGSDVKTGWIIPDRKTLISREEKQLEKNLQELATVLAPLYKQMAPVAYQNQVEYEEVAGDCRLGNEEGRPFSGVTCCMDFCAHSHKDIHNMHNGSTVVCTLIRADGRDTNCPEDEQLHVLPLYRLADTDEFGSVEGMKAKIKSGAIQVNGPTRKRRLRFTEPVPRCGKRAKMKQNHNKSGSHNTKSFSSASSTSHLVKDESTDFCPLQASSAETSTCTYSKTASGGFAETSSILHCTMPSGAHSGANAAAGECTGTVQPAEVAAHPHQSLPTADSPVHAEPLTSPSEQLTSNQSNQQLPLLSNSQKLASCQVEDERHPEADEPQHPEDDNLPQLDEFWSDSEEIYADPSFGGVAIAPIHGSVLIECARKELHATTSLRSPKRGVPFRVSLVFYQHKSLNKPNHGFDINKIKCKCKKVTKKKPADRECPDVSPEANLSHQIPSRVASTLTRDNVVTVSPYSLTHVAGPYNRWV
UniProt Q4JK59: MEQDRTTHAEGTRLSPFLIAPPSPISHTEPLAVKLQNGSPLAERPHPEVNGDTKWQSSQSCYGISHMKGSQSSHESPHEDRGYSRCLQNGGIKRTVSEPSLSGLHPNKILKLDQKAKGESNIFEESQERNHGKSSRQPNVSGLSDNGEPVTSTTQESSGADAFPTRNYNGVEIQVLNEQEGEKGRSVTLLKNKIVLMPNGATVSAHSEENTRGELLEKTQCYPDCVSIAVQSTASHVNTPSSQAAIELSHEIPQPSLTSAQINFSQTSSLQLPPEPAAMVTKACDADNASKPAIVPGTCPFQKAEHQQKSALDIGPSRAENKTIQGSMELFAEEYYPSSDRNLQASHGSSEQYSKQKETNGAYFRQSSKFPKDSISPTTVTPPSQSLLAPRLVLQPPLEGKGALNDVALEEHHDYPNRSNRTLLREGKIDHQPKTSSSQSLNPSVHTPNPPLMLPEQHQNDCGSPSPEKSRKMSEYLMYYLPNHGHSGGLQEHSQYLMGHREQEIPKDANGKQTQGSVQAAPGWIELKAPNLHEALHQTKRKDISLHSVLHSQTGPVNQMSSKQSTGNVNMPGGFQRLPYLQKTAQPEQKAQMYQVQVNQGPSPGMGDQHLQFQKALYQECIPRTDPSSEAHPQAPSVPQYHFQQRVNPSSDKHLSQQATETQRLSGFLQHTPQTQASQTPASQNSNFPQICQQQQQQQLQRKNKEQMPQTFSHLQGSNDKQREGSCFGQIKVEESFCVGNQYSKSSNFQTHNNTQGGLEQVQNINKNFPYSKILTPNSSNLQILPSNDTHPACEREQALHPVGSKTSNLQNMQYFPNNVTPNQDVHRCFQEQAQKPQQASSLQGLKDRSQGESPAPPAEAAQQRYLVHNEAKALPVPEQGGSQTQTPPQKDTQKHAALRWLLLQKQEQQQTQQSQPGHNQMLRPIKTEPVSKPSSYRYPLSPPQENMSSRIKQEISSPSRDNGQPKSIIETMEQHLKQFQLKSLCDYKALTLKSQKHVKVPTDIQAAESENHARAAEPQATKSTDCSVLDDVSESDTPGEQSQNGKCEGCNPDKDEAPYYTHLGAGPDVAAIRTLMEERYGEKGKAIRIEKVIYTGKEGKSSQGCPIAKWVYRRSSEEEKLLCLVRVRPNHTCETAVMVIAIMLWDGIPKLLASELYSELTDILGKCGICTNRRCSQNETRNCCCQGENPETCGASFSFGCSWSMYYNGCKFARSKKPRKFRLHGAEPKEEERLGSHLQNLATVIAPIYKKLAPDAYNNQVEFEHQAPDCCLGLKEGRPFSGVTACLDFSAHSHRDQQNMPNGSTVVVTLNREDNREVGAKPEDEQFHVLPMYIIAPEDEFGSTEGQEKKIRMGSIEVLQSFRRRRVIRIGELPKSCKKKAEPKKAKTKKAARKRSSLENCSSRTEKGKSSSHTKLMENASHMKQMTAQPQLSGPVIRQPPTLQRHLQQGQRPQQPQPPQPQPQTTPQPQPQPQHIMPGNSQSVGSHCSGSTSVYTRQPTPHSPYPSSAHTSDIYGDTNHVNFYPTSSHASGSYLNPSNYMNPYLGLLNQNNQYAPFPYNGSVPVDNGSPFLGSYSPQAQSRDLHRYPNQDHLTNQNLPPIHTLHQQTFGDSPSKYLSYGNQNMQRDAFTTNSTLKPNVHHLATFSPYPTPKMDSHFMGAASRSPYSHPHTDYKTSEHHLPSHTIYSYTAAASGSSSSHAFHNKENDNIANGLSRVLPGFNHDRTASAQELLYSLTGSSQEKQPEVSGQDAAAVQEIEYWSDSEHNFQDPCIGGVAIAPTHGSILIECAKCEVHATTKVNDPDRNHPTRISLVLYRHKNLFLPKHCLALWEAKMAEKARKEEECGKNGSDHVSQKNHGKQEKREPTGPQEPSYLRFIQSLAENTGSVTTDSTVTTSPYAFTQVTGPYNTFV

In experiment [1] the target is TET1 (endogenous, mouse embryonic stem cells) (mouse (endogenous in J1 mESCs)) (UniProt Q3URK3). Briefly: affinity purification with mass spectrometry; endogenous TET1 or TET2 precipitated from J1 mESCs with monoclonal antibodies (clones 5D6, 5D8, 9F7) coupled to protein G-Sepharose; on-bead trypsin digest; LC-MS/MS; protein G beads without antibody as negative control.

The target in experiment [2] is TET2 (endogenous, mouse embryonic stem cells) (mouse (endogenous in J1 mESCs)) (UniProt Q4JK59). The experiment is described as above.
Experiment [3] concerns the target GFP-TET2 (murine) (UniProt Q4JK59). Briefly: affinity purification with mass spectrometry; immunoprecipitation of GFP-tagged TET1, TET2 or TET3 expressed in HEK293T cells, followed by LC-MS/MS; pulldown of GFP as negative control.

B1: O-linked GlcNAc transferase OGT (endogenous, mouse embryonic stem cells) (enzyme, UniProt Q8CGY8 1-1046)
chain: MASSVGNVADSTEPTKRMLSFQGLAELAHREYQAGDFEAAERHCMQLWRQEPDNTGVLLLLSSIHFQCRRLDRSAHFSTLAIKQNPLLAEAYSNLGNVYKERGQLQEAIEHYRHALRLKPDFIDGYINLAAALVAAGDMEGAVQAYVSALQYNPDLYCVRSDLGNLLKALGRLEEAKACYLKAIETQPNFAVAWSNLGCVFNAQGEIWLAIHHFEKAVTLDPNFLDAYINLGNVLKEARIFDRAVAAYLRALSLSPNHAVVHGNLACVYYEQGLIDLAIDTYRRAIELQPHFPDAYCNLANALKEKGSVAEAEDCYNTALRLCPTHADSLNNLANIKREQGNIEEAVRLYRKALEVFPEFAAAHSNLASVLQQQGKLQEALMHYKEAIRISPTFADAYSNMGNTLKEMQDVQGALQCYTRAIQINPAFADAHSNLASIHKDSGNIPEAIASYRTALKLKPDFPDAYCNLAHCLQIVCDWTDYDERMKKLVSIVAEQLEKNRLPSVHPHHSMLYPLSHGFRKAIAERHGNLCLDKINVLHKPPYEHPKDLKLSDGRLRVGYVSSDFGNHPTSHLMQSIPGMHNPDKFEVFCYALSPDDGTNFRVKVMAEANHFIDLSQIPCNGKAADRIHQDGIHILVNMNGYTKGARNELFALRPAPIQAMWLGYPGTSGALFMDYIITDQETSPAEVAEQYSEKLAYMPHTFFIGDHANMFPHLKKKAVIDFKSNGHIYDNRIVLNGIDLKAFLDSLPDVKIVKMKCPDGGDNPDSSNTALNMPVIPMNTIAEAVIEMINRGQIQITINGFSISNGLATTQINNKAATGEEVPRTIIVTTRSQYGLPEDAIVYCNFNQLYKIDPSTLQMWANILKRVPNSVLWLLRFPAVGEPNIQQYAQNMGLPQNRIIFSPVAPKEEHVRRGQLADVCLDTPLCNGHTTGMDVLWAGTPMVTMPGETLASRVAASQLTCLGCLELIAKSRQEYEDIAVKLGTDLEYLKKIRGKVWKQRISSPLFNTKQYTMELERLYLQMWEHYAAGNKPDHMIKPVEVTESA
As for B1, the binding entry in experiment [1] and in experiment [2] was “binds” each time.

B2: OGT found in GFP-TET pulldowns from HEK293T cells (enzyme, UniProt O15294 1-1046)
chain: B1 chain with E495D, P765A, S972N, I993V
In the case of B2, in experiment [3], the binding result is on record as “binds”.
